Results are given in words; binding and its absence hold for the method and conditions named. In cells and extracts the contact can be indirect. Some binding calls cover weakened binding; strength is not graded here.
Experiments:
GST-LC3C = GST-LC3C (UniProt Q9BXW4); experiment: pull-down; GST-Atg8 homologs on glutathione-Sepharose beads; 35S-labelled in vitro translated Myc-tagged proteins; 2 h at 4°C in NETN buffer (50 mM Tris pH 8.0, 100 mM NaCl, 1 mM EDTA, 0.5% Nonidet P-40); autoradiography; only the target purified
GST-GABARAPL2 = GST-GABARAPL2 (UniProt P60520); experiment: as above

Amino acid sequences for entries named in this document (tags omitted). Residues count along the entry.
UniProt Q9BXW4, residues 1-126: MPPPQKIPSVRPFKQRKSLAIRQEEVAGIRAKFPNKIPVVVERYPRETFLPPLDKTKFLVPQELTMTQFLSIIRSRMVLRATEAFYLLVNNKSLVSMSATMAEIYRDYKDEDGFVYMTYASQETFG
UniProt P60520: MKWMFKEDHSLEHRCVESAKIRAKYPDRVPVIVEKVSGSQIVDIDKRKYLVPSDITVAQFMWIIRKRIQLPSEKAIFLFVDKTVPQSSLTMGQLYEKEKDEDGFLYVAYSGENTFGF

binding (GST-LC3C): binds
binding (GST-GABARAPL2): binds
Substance: Myc-tagged ATG14, full-length, in vitro translated (from UniProt Q6ZNE5 1-492)

Reference: publication PMC6613885
